Source: paper PMC3794586
These are yes or no findings as the source states them, for the method shown. Binding seen in cells or lysates may run through a third protein. Some results given as binding are weak or reduced against the parent protein; the word gives no strength.

By UniProt entry, the sequences of proteins in these tests, tags left out.
UniProt P04150: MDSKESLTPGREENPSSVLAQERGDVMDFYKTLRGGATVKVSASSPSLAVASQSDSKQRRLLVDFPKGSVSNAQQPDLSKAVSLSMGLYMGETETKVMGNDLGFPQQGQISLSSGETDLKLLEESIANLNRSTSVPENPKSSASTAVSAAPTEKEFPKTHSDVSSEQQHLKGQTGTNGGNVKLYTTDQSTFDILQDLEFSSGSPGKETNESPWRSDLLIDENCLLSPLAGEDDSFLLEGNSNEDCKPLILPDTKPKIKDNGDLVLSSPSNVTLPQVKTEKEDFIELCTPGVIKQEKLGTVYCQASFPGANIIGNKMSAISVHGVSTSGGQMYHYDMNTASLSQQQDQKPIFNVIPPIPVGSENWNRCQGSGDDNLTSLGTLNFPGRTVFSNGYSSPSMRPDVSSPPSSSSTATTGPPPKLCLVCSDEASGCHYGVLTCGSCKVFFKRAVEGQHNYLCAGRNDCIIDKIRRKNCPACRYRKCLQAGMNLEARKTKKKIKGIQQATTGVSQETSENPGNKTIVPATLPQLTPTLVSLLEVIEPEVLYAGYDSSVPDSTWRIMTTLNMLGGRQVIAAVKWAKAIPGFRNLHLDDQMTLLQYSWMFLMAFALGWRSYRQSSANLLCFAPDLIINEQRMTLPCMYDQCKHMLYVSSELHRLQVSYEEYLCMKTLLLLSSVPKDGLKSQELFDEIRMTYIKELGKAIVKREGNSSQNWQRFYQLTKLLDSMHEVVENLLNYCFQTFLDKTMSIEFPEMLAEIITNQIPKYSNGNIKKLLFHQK
UniProt Q13526: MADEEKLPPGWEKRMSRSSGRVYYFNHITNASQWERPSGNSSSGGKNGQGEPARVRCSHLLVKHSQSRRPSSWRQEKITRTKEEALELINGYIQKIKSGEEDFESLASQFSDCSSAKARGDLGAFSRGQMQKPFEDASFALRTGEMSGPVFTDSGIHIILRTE
UniProt Q15596: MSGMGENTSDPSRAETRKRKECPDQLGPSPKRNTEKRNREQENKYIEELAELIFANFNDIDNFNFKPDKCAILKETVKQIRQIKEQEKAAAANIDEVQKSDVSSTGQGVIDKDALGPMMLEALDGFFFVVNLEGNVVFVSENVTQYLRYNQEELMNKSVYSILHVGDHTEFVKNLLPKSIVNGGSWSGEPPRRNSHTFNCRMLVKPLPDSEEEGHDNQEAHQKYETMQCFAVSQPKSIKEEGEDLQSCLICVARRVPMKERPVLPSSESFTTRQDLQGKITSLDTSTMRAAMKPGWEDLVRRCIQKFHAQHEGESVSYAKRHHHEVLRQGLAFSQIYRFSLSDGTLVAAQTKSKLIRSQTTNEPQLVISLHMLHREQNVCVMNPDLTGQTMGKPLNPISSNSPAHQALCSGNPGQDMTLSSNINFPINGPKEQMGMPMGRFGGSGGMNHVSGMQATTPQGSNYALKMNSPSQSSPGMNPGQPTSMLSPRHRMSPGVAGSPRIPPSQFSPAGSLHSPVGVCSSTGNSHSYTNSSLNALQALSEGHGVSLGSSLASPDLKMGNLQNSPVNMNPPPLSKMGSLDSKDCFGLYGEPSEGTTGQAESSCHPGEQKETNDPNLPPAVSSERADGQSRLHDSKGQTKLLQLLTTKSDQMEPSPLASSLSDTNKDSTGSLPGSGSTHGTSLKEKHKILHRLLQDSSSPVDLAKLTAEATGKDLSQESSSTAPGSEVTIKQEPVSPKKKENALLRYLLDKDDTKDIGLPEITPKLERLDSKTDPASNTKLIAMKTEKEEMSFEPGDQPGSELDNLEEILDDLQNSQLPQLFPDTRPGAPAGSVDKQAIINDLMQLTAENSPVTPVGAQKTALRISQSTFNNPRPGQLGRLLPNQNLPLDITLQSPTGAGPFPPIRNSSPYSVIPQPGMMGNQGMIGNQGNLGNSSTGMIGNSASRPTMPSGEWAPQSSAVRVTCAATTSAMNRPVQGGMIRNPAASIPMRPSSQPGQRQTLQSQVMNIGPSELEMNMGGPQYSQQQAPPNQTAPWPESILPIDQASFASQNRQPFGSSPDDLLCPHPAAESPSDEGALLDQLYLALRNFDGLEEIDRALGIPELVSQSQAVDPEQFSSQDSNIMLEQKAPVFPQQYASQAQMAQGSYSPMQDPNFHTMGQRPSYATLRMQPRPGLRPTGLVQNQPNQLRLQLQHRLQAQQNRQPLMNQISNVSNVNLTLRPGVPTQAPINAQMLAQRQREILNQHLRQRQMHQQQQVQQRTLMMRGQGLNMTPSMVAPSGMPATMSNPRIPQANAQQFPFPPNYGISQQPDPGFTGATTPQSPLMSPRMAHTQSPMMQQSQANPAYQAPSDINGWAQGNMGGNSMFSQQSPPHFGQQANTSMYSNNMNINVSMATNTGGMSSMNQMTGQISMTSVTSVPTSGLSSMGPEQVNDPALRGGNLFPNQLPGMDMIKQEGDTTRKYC

Columns and labels:
[1] = molecular target: glucocorticoid receptor (GR) (human (endogenous in A549)) (UniProt P04150); test: co-IP; endogenous proteins immunoprecipitated from A549 cell lysates (500 µg total protein, 2 µg antibody, 1 h at 4°C, Protein A or G; lysis buffer 250 mM NaCl, 20 mM Bicine pH 7.4, 0.5% IGEPAL; extracts DNase treated; six washes), immunoblot; cells treated with DEX (100 nM) for the indicated time or 1 h
[2] = molecular target: Pin1 (human (endogenous in A549)) (UniProt Q13526); test: as above

Row | binding [1] | binding [2] | Substance
1 | binds |  | Pin1 (from UniProt Q13526 1-163) (enzyme)
2 |  | no binding | SRC-2 (from UniProt Q15596 1-1464)
3 |  | binds | glucocorticoid receptor (GR) (from UniProt P04150 1-777)
